The data set concerns the target Cytochrome P450 2C9 (Homo sapiens, UniProt P11712).

Chains of the proteins cited; added tags and fusions are not shown.
UniProt P11712, whole entry: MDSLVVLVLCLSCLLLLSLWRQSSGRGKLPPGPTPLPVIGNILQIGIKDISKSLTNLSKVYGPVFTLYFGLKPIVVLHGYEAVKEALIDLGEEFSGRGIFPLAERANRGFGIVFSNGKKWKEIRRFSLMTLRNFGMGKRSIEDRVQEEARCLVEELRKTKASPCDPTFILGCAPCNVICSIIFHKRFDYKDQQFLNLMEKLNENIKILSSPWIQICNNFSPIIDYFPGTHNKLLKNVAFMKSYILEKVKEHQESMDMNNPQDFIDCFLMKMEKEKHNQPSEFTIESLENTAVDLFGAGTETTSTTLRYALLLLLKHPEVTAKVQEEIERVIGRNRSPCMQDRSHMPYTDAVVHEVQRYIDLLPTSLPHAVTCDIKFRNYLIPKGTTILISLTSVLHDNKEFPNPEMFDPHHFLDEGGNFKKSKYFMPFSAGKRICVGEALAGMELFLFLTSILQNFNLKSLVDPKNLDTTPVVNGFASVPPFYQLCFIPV

On to `CC12CC[C@@H]3c4ccc(OS(=O)(=O)O)cc4CC[C@H]3C1CCC2=O` (stereo partly specified) [ESTRONE SULFURIC ACID], for which the AC50 result is recorded as “inconclusive”.
